The target in this assay is T1, CSCC3: AtSCC3 fused with the C-terminal of LUC (Arabidopsis thaliana) (UniProt O82265).
T1 sequence: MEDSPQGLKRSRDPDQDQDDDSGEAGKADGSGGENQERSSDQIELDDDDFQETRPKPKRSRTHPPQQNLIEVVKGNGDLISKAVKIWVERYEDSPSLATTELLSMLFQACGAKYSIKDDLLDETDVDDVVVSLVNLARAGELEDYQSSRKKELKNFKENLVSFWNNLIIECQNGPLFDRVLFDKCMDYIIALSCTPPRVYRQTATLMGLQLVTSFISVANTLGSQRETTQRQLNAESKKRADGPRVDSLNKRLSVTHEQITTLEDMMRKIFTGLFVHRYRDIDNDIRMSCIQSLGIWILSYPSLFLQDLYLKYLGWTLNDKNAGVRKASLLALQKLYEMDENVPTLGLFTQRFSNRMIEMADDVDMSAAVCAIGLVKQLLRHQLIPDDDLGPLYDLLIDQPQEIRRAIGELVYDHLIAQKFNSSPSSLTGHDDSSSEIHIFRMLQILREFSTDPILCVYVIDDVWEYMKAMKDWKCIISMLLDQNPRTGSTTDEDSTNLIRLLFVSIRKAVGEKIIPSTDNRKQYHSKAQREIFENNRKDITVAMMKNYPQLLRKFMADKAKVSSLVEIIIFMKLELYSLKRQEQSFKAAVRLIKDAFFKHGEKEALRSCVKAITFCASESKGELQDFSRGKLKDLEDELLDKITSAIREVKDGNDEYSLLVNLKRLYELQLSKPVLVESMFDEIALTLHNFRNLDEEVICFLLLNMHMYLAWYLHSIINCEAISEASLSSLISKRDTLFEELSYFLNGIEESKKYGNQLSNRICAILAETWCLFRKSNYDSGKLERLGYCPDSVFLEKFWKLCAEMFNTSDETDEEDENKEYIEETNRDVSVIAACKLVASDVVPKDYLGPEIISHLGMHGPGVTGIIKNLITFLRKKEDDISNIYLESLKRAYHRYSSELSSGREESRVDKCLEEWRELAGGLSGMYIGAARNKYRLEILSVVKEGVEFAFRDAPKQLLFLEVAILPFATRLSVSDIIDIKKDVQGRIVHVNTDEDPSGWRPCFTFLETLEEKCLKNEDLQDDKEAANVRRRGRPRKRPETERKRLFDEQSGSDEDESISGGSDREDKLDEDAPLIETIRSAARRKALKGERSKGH
Put plainly: split reporter; firefly luciferase complementation imaging; N- and C-terminal LUC fragment fusions co-infiltrated into N. benthamiana leaves, imaged 48 h later with luciferin.

No constants are given. Whether binding was seen depends on the method and setting. Binding seen in cells or lysates may run through a third protein. Some results given as binding are weak or reduced against the parent protein; the word gives no strength. Tags and fused reporters may be left off the sequences shown.

This note sets out measurements from paper PMC9984397.

B1: AtRING1A, LUC-fragment fusion (protein, UniProt Q9FKW0 1-522)
chain: MSVKNNSFSSAEIPDVADQPRDRFNPEATQDLQEKDETKEEKEGDEEVKHDEAEEDQEVVKPNDAEEDDDGDDAEEDEEEEVEAEEDEEAEEEEEEEEEEEEEEEDSKERSPSSISGDQSEFMEIDLGEIRKDVQCPICLGIIKKTRTVMECLHRFCRECIDKSMRLGNNECPACRKHCASRRSLRDDPKFDALIAALFTNIDSYEEEELAFHEDEMARNKQIQASIAQISQRQSEALVKRRSLGKEAAVLMRSPRIASGSRRRRNSRNMEQQNASEAHEDDDNDDNNNRGRDKDSSSDERGTEVRQKKRRKRSTSRSTQHPSSSGANKNNGNCADNDTEVYRDTKGISPGLVWNPEILAWGRGGTRSNTRHGNNTSGGSSKSVRNARVNKLVEYLRSSVDGSSVELDIHVKLVSLDTKCIPDLPQPYLCCRPTLLVKQLREFVALQIHLKTEEVELLVTRRRVGEDAAIENLPAVTPASAAASKDEMLSLEDNETLSRLKIDFISSHEQHLIIAYRKKQTE
B1: the binding entry was “binds”.
